# The other results are listed elsewhere or left out.
# B1: Vd7LysM (Verticillium dahliae) (protein)
# chain: RRGPEPKYPPAAGTSSYCSYWVDYEGDKSCSRVLEDNVVVLKDFARWNPTVGADCSGIKAGNSYCVEAFGEPEPIEVTTTTRAATTTTQPTATTTTFANGIATPQPTQSGMVTNCNKFHWIAEGVSCSQVISFQKITLADFVKWNPSVKSDCSGMWAGVNVCVGVVGSSTDTAKPTTTAPSNGVVTPQPTQPSMVTNCNKFHWIAKGVTCQQVISYQKISLADFVKWNPSVLSDCSGMWAEVQVCVGVIGSTPTTLATTTTTAGNGVSTPLPTQPGMVTNCAKFHWVAKGVTCNQIYSFQKITLEQFVSYNPTVKSDCSGMQAEVQVCVGLIAGTTPTTTRPPTTTAPGNGVSTPQPTQPGMVTNCAKFHWVAKGVTCNQIYSFQKITLEQFVSFNPTVKSDCTGMQAEVNVCVGLIGGNPTPTQTGNGIATPTPIQPGMVSNCKKFHWIAQGVTCQQVISFQKITLADFVKWNTGVGSDCRTMWAETNVCVGV
# Assays:
# Test in all cases: glycan array binding signal (z-score within array); higher = stronger binding
# Details in all cases: glycan notation: IUPAC condensed, linker removed
# [1] = target: GlcNAc(b1-4)GlcNAc(b1-4)GlcNAc(b1-4)GlcNAc(b1-4)GlcNAc(b1-4)GlcNAc
# How it was run: (§1)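 Glycan array binding is given as a within-array Z-score, which can be read as non-binding when negative. The arrays, 3228 of them, came from the Consortium for Functional Glycomics database and were retained only where the protein sequence was available. Z-scores were averaged across arrays of the same protein sequence at different concentrations or buffers and across linkers.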
# [2] = target: GlcNAc(b1-4)[GlcNAc(b1-6)]GalNAc
# How it was run: as §1
# [3] = target: GlcNAc(b1-6)Gal(b1-4)GlcNAc
# How it was run: as §1
# [4] = target: GlcNAc(b1-6)GalNAc
# How it was run: as §1
# [5] = target: GlcNAc6S(b1-3)Gal(b1-4)GlcNAc
# How it was run: as §1
# [6] = target: Kdn(a2-3)Gal(b1-3)GalNAc
# How it was run: as §1
# [7] = target: Kdn(a2-3)Gal(b1-3)GlcNAc
# How it was run: as §1
# [8] = target: Kdn(a2-3)Gal(b1-4)Glc
# How it was run: as §1
# [9] = target: Kdn(a2-3)Gal(b1-4)GlcNAc
# How it was run: as §1
# [10] = target: Kdn(a2-3)Gal(b1-4)[Fuc(a1-3)]GlcNAc
# How it was run: as §1
# [11] = target: Kdn(a2-6)Gal(b1-4)GlcNAc
# How it was run: as §1
# [12] = target: Man(a1-2)Man(a1-2)Man(a1-3)Man
# How it was run: as §1
# [13] = target: Man(a1-2)Man(a1-2)Man(a1-6)[Man(a1-3)]Man
# How it was run: as §1
# [14] = target: Man(a1-2)Man(a1-3)Man
# How it was run: as §1
# [15] = target: Man(a1-2)Man(a1-3)[Man(a1-2)Man(a1-6)]Man
# How it was run: as §1
# [16] = target: Man(a1-2)Man(a1-3)[Man(a1-2)Man(a1-6)]Man(a1-6)[Man(a1-2)Man(a1-2)Man(a1-3)]Man
# How it was run: as §1
# [17] = target: Man(a1-2)Man(a1-3)[Man(a1-2)Man(a1-6)]Man(a1-6)[Man(a1-2)Man(a1-2)Man(a1-3)]Man(b1-4)GlcNAc(b1-4)GlcNAc
# How it was run: as §1
# [18] = target: Man(a1-2)Man(a1-3)[Man(a1-6)]Man(a1-6)[Man(a1-2)Man(a1-3)]Man(b1-4)GlcNAc(b1-4)GlcNAc
# How it was run: as §1
# [19] = target: Man(a1-2)Man(a1-6)[Man(a1-3)]Man(a1-6)[Man(a1-2)Man(a1-2)Man(a1-3)]Man
# How it was run: as §1
# [20] = target: Man(a1-2)Man(a1-6)[Man(a1-3)]Man(a1-6)[Man(a1-2)Man(a1-2)Man(a1-3)]Man(b1-4)GlcNAc(b1-4)GlcNAc
# How it was run: as §1
# [21] = target: Man(a1-3)[Man(a1-6)]Man
# How it was run: as §1
# [22] = target: Man(a1-3)[Man(a1-6)]Man(a1-6)[Man(a1-2)Man(a1-3)]Man(b1-4)GlcNAc(b1-4)GlcNAc
# How it was run: as §1
# [23] = target: Man(a1-3)[Man(a1-6)]Man(a1-6)[Man(a1-3)]Man
# How it was run: as §1
# [24] = target: Man(a1-3)[Man(a1-6)]Man(a1-6)[Man(a1-3)]Man(b1-4)GlcNAc(b1-4)GlcNAc
# How it was run: as §1
# [25] = target: Man(a1-3)[Man(a1-6)]Man(b1-4)GlcNAc(b1-4)GlcNAc
# How it was run: as §1
# [26] = target: Man(a1-3)[Man(a1-6)]Man(b1-4)GlcNAc(b1-4)[Fuc(a1-6)]GlcNAc
# How it was run: as §1
# [27] = target: Man(a1-6)Man
# How it was run: as §1
# [28] = target: Man(b1-4)GlcNAc
# How it was run: as §1
# [29] = target: MurNAc(b1-4)GlcNAc
# How it was run: as §1
# [30] = target: Neu5Ac(a2-3)Gal
# How it was run: as §1
# [31] = target: Neu5Ac(a2-3)Gal(b1-3)GalNAc
# How it was run: as §1
# [32] = target: Neu5Ac(a2-3)Gal(b1-3)GalNAc(b1-3)Gal(a1-4)Gal(b1-4)Glc
# How it was run: as §1
# [33] = target: Neu5Ac(a2-3)Gal(b1-3)GalNAc(b1-4)Gal(b1-4)Glc
# How it was run: as §1
# [34] = target: Neu5Ac(a2-3)Gal(b1-3)GalNAc(b1-4)[Neu5Ac(a2-3)]Gal(b1-4)Glc
# How it was run: as §1
# [35] = target: Neu5Ac(a2-3)Gal(b1-3)GalNAc(b1-4)[Neu5Ac(a2-8)Neu5Ac(a2-3)]Gal(b1-4)Glc
# How it was run: as §1
# [36] = target: Neu5Ac(a2-3)Gal(b1-3)GalNAc6S
# How it was run: as §1
# [37] = target: Neu5Ac(a2-3)Gal(b1-3)GlcNAc
# How it was run: as §1
binder,measurement,setting,value
B1,glycan array binding signal (z-score),[1],2.3
same,glycan array binding signal (z-score),[2],-1.4
same,glycan array binding signal (z-score),[3],1.37
same,glycan array binding signal (z-score),[4],-0.499
same,glycan array binding signal (z-score),[5],0.676
same,glycan array binding signal (z-score),[6],3.09
same,glycan array binding signal (z-score),[7],0.51
same,glycan array binding signal (z-score),[8],0.199
same,glycan array binding signal (z-score),[9],-0.6
same,glycan array binding signal (z-score),[10],-0.911
same,glycan array binding signal (z-score),[11],-0.881
same,glycan array binding signal (z-score),[12],-0.139
same,glycan array binding signal (z-score),[13],1.74
same,glycan array binding signal (z-score),[14],-0.119
same,glycan array binding signal (z-score),[15],0.727
same,glycan array binding signal (z-score),[16],-1.09
same,glycan array binding signal (z-score),[17],-0.549
same,glycan array binding signal (z-score),[18],0.643
same,glycan array binding signal (z-score),[19],-1.1
same,glycan array binding signal (z-score),[20],-1.7
same,glycan array binding signal (z-score),[21],-0.828
same,glycan array binding signal (z-score),[22],0.416
same,glycan array binding signal (z-score),[23],0.074
same,glycan array binding signal (z-score),[24],-0.516
same,glycan array binding signal (z-score),[25],0.486
same,glycan array binding signal (z-score),[26],-1.68
same,glycan array binding signal (z-score),[27],1.36
same,glycan array binding signal (z-score),[28],1.28
same,glycan array binding signal (z-score),[29],-0.59
same,glycan array binding signal (z-score),[30],-0.062
same,glycan array binding signal (z-score),[31],0.266
same,glycan array binding signal (z-score),[32],-0.295
same,glycan array binding signal (z-score),[33],-1.53
same,glycan array binding signal (z-score),[34],-1.04
same,glycan array binding signal (z-score),[35],-1.16
same,glycan array binding signal (z-score),[36],-0.342
same,glycan array binding signal (z-score),[37],-0.499

# 2 entries from above, tab-delimited.
binder	measurement	setting	value
B1	glycan array binding signal (z-score)	[15]	0.727
same	glycan array binding signal (z-score)	[29]	-0.59

# Source: the supplement of paper PMC8728848
